{"source": "PubChem BioAssay AID1259415", "about": "(National Center for Advancing Translational Sciences (NCATS), 2018)", "note": "Screen size: about 410,000 compounds; about 18,000 (4.4%) were called active. The inconclusive results got no clear call from the source; some entries with a clear call stand among them for comparison. No stated cut-off is given here; in the data, active means activity change below about -60%; inconclusive means no clear call, values can overlap the other calls; inactive means above about -39%. On the % scale 0 is the no-effect control and ±100 the full control effect."}
{"experiment": "qHTS Assay for inhibitors of the human cytomegalovirus (HCMV)", "details": "HFF cells, HCMV-luciferase reporter, 72 h; at 57.5 µM; hits give low values", "method_in_brief": "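Screen run at 2 compound doses on HFFs infected with reporter HCMV, MOI 1 PFU/cell. Luciferase activity from cell lysates at 72 h post infection gave inhibition relative to buffer-only and Salinomycin wells.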"}
{"smiles": "COc1ccc(/C=C(/NC(=O)c2cccc([N+](=O)[O-])c2)C(=O)O)cc1", "activity change, negative = inhibition": "inconclusive: -42.5%"}
{"smiles": "Cc1cc(Nc2ccccc2)nn1C(=O)c1ccccc1", "activity change, negative = inhibition": "inactive: -23.1%"}
{"smiles": "CCCCCCCSc1ncnc2[nH]ncc12", "activity change, negative = inhibition": "inactive: -26%"}
{"smiles": "Cc1cc(SCC#N)n2nc(C)c(-c3ccc(Cl)cc3)c2n1", "activity change, negative = inhibition": "inconclusive: -51.6%"}
{"smiles": "O=C(CSc1nc(C2CCCCC2)nc2ccccc12)N1CCCC1", "activity change, negative = inhibition": "active: -101%"}
{"smiles": "Cc1cccc(NC(=O)c2cccc(N3CCCS3(=O)=O)c2)c1", "activity change, negative = inhibition": "inactive: 39.5%"}
{"smiles": "O=[N+]([O-])c1ccc(O)c(-c2nc(-c3ccccc3)c(-c3cccs3)[nH]2)c1", "activity change, negative = inhibition": "active: -103%"}
{"smiles": "COC(=O)N/N=C(\\C)c1ccc(-n2ccnc2)cc1", "activity change, negative = inhibition": "inactive: 22.8%"}
{"smiles": "Cc1cc(NC(=O)c2ccc3sc([C@@H]4O[C@H](CO)[C@H](O)[C@H](O)[C@H]4O)nc3c2)n(C)n1", "activity change, negative = inhibition": "inactive: 0.779%"}
{"smiles": "CC(C)C(=O)N1CCN(c2ccccc2NC(=O)c2ccc([N+](=O)[O-])o2)CC1", "activity change, negative = inhibition": "active: -72.9%"}
{"smiles": "CN1C2CCC1/C(=C/c1ccccn1)C(=O)/C2=C\\c1ccccn1", "activity change, negative = inhibition": "active: -101%"}
{"smiles": "COc1ccc(C)cc1NC(=O)C(OC(=O)c1cc(C)oc1C)c1ccccc1", "note": "(configuration not stated)", "activity change, negative = inhibition": "inconclusive: -50.8%"}
{"smiles": "Cc1nn(-c2ccc(Cl)cc2Cl)c(=O)c2ccccc12", "activity change, negative = inhibition": "inconclusive: -52.2%"}
{"smiles": "CC(=O)c1cccc(NC(=O)C(C)OC(=O)CCCN=C2NS(=O)(=O)c3ccccc32)c1", "note": "(configuration not stated)", "activity change, negative = inhibition": "inactive: -11.2%"}
{"smiles": "CCC(C)N(C(=O)c1csnn1)C(C(=O)NC(C)(C)C)c1ccccc1", "note": "(configuration not stated)", "activity change, negative = inhibition": "inconclusive: -50.4%"}
{"smiles": "Cc1cc(C)c(S(=O)(=O)NCc2ccncc2)c(C)c1", "activity change, negative = inhibition": "active: -83.7%"}
{"smiles": "S=C(NCCCN1CCOCC1)N1CCN(c2nc(-c3ccccc3)cs2)CC1", "activity change, negative = inhibition": "inconclusive: -44.2%"}
{"smiles": "c1ccc(CCNc2ncnc3nc[nH]c23)cc1", "activity change, negative = inhibition": "inconclusive: -46.3%"}
{"smiles": "O=S(=O)(c1ccccc1)c1nc(-c2ccco2)oc1N1CCCCCC1", "activity change, negative = inhibition": "inconclusive: -51.1%"}
{"smiles": "Cc1cccc2c1N(CCCOc1ccccc1)C(=O)C2=O", "activity change, negative = inhibition": "inactive: 11.7%"}
{"smiles": "COc1ccc(NC(=O)c2cccnc2Nc2ccccc2)cc1", "activity change, negative = inhibition": "inconclusive: -42.5%"}
{"smiles": "Cc1nn(Cc2ccc(Cl)cc2)c(C)c1NC(=O)c1c(-c2ccccc2)noc1C", "activity change, negative = inhibition": "inconclusive: -58.3%"}
{"smiles": "Cc1sc2nc[nH]c(=S)c2c1-c1ccccc1", "activity change, negative = inhibition": "inconclusive: -45.3%"}
{"smiles": "Clc1cccc(Cl)c1C[n+]1cccc2ccccc21", "activity change, negative = inhibition": "active: -81.3%"}
{"smiles": "Cc1ccc(-c2c[n+](CC(=O)Nc3c(C)cccc3C)c3n2CCC3)cc1", "activity change, negative = inhibition": "active: -67.6%"}
{"smiles": "Cc1ccccc1CCNC(=O)c1ccc2c(c1)c(C)c(C)n2C", "activity change, negative = inhibition": "inconclusive: 0%"}
{"smiles": "CCN(Cc1ccncc1)C(=O)C1CCN(S(=O)(=O)c2cccs2)CC1", "activity change, negative = inhibition": "active: -107%"}
{"smiles": "CCCCCn1c(=O)[nH]c2cc(C(=O)Nc3cc(OC)cc(OC)c3)ccc2c1=O", "activity change, negative = inhibition": "inactive: -3.79%"}
{"smiles": "CCN1CCN(c2nc(Nc3cc(OC)ccc3OC)nc(Nc3cc(OC)ccc3OC)n2)CC1", "activity change, negative = inhibition": "active: -64.4%"}
{"smiles": "O=C(NN1C(=O)c2ccccc2NC1c1ccccc1OCc1ccccc1)c1ccncc1", "note": "(configuration not stated)", "activity change, negative = inhibition": "inconclusive: -54%"}
{"smiles": "O=C(Cc1ccccc1Cl)N1CCN(c2ccccn2)CC1", "activity change, negative = inhibition": "inconclusive: -42.1%"}
{"smiles": "CCCCCC(=O)N/N=C(\\C)c1ccccn1", "activity change, negative = inhibition": "active: -98.9%"}
{"smiles": "CCN(CC)CCN(C)C(=O)c1[nH]c(C(F)(F)F)nc1-c1ccccc1", "activity change, negative = inhibition": "active: -98.9%"}
{"smiles": "NC(=O)c1nnn(Cc2cc(Cl)c(C(=O)c3ccc(Cl)cc3)c(Cl)c2)c1N", "activity change, negative = inhibition": "active: -91.2%"}
{"smiles": "O=C(N/N=C/c1ccc([N+](=O)[O-])o1)c1cc2c(ccc3ccccc32)o1", "activity change, negative = inhibition": "active: -72.4%"}
{"smiles": "CC1=NN(c2ccccc2)C(=O)/C1=C/c1cccc(C)c1", "activity change, negative = inhibition": "inconclusive: -54.3%"}
{"smiles": "CC(Nc1ccccc1CO)C(=O)Nc1cccc(Cl)c1Cl", "note": "(configuration not stated)", "activity change, negative = inhibition": "inconclusive: -53.3%"}
{"smiles": "Fc1ccc(-c2nn(-c3ccccc3)cc2CNCc2ccccc2)cc1", "activity change, negative = inhibition": "inconclusive: -54.3%"}
{"smiles": "O=c1[nH]c(-c2ccc(F)cc2)nc2c1sc(=S)n2-c1ccccc1", "activity change, negative = inhibition": "inconclusive: -57.3%"}
{"smiles": "N#CC1(C#N)[C@@H](C(=O)C23CC4CC(CC(C4)C2)C3)C12CCOCC2", "activity change, negative = inhibition": "inconclusive: -43.4%"}
{"smiles": "CC1(C)C2CCC1(CS(=O)(=O)Nc1ccc(S(=O)(=O)NC3CCCCC3)cc1)C(=O)C2", "note": "(configuration not stated)", "activity change, negative = inhibition": "inconclusive: -55.8%"}
{"smiles": "Cc1csc(NC(=O)CSc2sc3c(O)cc(=O)[nH]c3c2C#N)n1", "activity change, negative = inhibition": "inactive: 56.8%"}
{"smiles": "CCN(CC)CCN1C(=O)C(=O)/C(=C(/O)c2ccc(S(=O)(=O)N3CCOCC3)cc2)C1c1ccc(C)cc1", "note": "(configuration not stated)", "activity change, negative = inhibition": "inconclusive: -50.2%"}
{"smiles": "Clc1nc(-c2ccccn2)nc2scc(-c3ccccc3)c12", "activity change, negative = inhibition": "active: -66.3%"}
{"smiles": "Cc1ccc2cc(C#N)c(NCc3ccccc3)nc2c1", "activity change, negative = inhibition": "inconclusive: -54.5%"}
{"smiles": "CC(=O)Nc1cccc(-c2cnc3ccc(Cc4ccc(F)c(F)c4)nn23)c1", "activity change, negative = inhibition": "inconclusive: -57.2%"}
{"smiles": "CC(/C=N/n1c(-c2cccnc2)n[nH]c1=S)=C\\c1ccccc1", "activity change, negative = inhibition": "active: -76.7%"}
{"smiles": "CCOc1ccc(Nc2nnc(SCc3nc4ccccc4c(=O)[nH]3)s2)cc1", "activity change, negative = inhibition": "inconclusive: -49%"}
{"smiles": "CCOc1ccccc1NC(=O)CN(C)S(=O)(=O)c1ccc2[nH]c(=O)oc2c1", "activity change, negative = inhibition": "inconclusive: -41.9%"}
{"smiles": "Cc1ccc(NC(N)=S)cc1C", "activity change, negative = inhibition": "inconclusive: -42.5%"}
{"smiles": "CC(C)(C)CC(=O)Nc1ccc(-c2cn3cccnc3n2)cc1", "activity change, negative = inhibition": "inactive: 75.2%"}
{"smiles": "Cc1cc2c3c(c1C)C(=O)C(=O)N3C(C)(C)CC2C", "note": "(configuration not stated)", "activity change, negative = inhibition": "inconclusive: -40.6%"}
{"smiles": "CCC1(C)NC(=O)N(CC(=O)Nc2sc3c(c2C(=O)OC)CCCCC3)C1=O", "note": "(configuration not stated)", "activity change, negative = inhibition": "inactive: -12%"}
{"smiles": "O=C(Cc1ccc(Cl)cc1)c1c[nH]c(C(=O)NCCCN2CCOCC2)c1", "activity change, negative = inhibition": "inconclusive: -40.8%"}
{"smiles": "C(#Cc1ccccc1)CN1CCOCC1", "activity change, negative = inhibition": "inconclusive: -56.6%"}
{"smiles": "CC1CCCN(C(=O)Cn2c(=O)oc3cc(S(=O)(=O)N4CCCCC4)ccc32)C1", "note": "(configuration not stated)", "activity change, negative = inhibition": "inconclusive: -49.7%"}
{"smiles": "CC1(C)OC(=O)C2=C(CC(CCc3ccccc3)OC2c2ccc(F)cc2)O1", "note": "(configuration not stated)", "activity change, negative = inhibition": "inactive: 10.6%"}
